Measurements reported in US20220204599A1.
These are yes or no findings as the source states them, for the method shown. Some results given as binding are weak or reduced against the parent protein; the word gives no strength. One block for each binder: values may come before it.

Sequences of proteins named here, by UniProt entry; tags and fusion partners are left off. A change or cut given only in a name is not applied to a line headed by its entry.
UniProt Q96CG8: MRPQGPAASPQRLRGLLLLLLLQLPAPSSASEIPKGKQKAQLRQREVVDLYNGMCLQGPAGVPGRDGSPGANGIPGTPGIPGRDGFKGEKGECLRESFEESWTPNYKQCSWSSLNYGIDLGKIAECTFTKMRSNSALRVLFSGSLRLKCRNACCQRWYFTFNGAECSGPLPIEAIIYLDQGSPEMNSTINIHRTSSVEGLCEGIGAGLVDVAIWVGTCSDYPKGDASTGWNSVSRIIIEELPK

Tests used:
[1] = biological target: collagen triple helix repeat containing-1 (CTHRC1) protein (Homo sapiens (Human)) (UniProt Q96CG8); test: indirect ELISA
[2] = biological target: collagen triple helix repeat containing-1 (CTHRC1) protein (Homo sapiens (Human)) (UniProt Q96CG8); test: indirect ELISA, CTHRC1 coated, antibody at 0, 1 and 5 µg/mL, anti-human kappa light chain-HRP
[3] = biological target: CTHRC1-Fc (Homo sapiens (Human)) (UniProt Q96CG8); test: indirect ELISA, CTHRC1-Fc coated, HRP-labeled anti-mouse antibody

binding [1]: binds
binding [2]: binds
B1: cCMAb96 anti-CTHRC1 chimeric antibody (antibody, V domains shown)
VH: QVQLQQPGSELVRPGASVKLSCKASGYTFTSYWMHWVKQRPGQGLEWIGNIYPSSGTTNYDEKFKNKATLTVDTSSTTAYMHLSSLTSEDSAVYYCTTESYWGQGTTLTVSS
VL: DIVMTQSPSSLSASLGDTITITCHASQNINVWLSWYQQKPGNIPKLLIYKASNLHTGVPSRFSGSGSGTGFTLTISSLQPEDIATYYCQQGQSYPLTFGGGTKLEIK

binding [1]: binds
binding [3]: binds
B2: 9E6 anti-CTHRC1 mouse monoclonal antibody (antibody, V domains shown)
VH: B1 VH
VL: B1 VL

binding [1]: binds
binding [3]: binds
B3: 4H5 anti-CTHRC1 mouse monoclonal antibody (antibody, V domains shown)
VH: EVQLQQSGPELVKPGASVKISCKASGYSFTDYIMLWVKQSHGKSLEWIGNINPYYGSTSYNLKFKGKATLTVDKSSSTAYMQLNSLTSEDSAVYYCARSGYGYDESAMDYWGQGTSVTVSS
VL: DVLMTQTPLSLPVNIGDQASISCKSTKSLLNSDGFTYLDWYLQKPGQSPQLLIYLVSNRFSGVPDRFSGSGSGTDFTLKISRVEAEDLGVYYCFQSNYLPLTFGSGTKLEIK

binding [1]: binds
binding [2]: binds
B4: cCMAb45 anti-CTHRC1 chimeric antibody (antibody, V domains shown)
VH: B3 VH
VL: B3 VL
